PubChem BioAssay AID1159584 | Peter MacCallum Cancer Centre – 2016
Aim: 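Knock-downs that harm CDH1-null cells more than parental MCF10A cells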 (primary screen). System: human MCF10A breast epithelial cells, parental and CDH1-null. Knock-down reagent: siRNA against human genes. Measurement: 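Cell viability by CellTiter-Glo ATP luminescence, each line scaled to the mean of mock wells across plates, then CDH1-null over parental ratio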. Reading the numbers: CDH1-null / parental viability ratio: higher = CDH1-null cells survive relatively better than parental; CDH1-null viability vs mock: higher = more viable CDH1-null cells; parental viability vs mock: higher = more viable parental cells.
In all, the deposit lists about 18,000 reagents; shown is a random part of them. No sequences are given here. The record does not give: the amount of reagent, the time to read-out.

The first 8 records, ahead of the listing:
Gene	CDH1-null / parental viability ratio	CDH1-null viability vs mock (fraction of mock)	parental viability vs mock (fraction of mock)
RANGAP1 (Ran GTPase activating protein 1)	1.01	0.92	0.91
SACK1B (scaffolding CK1 anchoring protein B)	1.32	1.06	0.8
MSH4 (mutS homolog 4)	0.74	0.52	0.7
BARX2 (BARX homeobox 2)	0.86	0.81	0.94
SCT (secretin)	1.18	0.52	0.44
MAL2 (mal, T cell differentiation protein 2)	1.05	1.01	0.96
QDPR (quinoid dihydropteridine reductase)	1.22	0.95	0.78
PIP5K1A (phosphatidylinositol-4-phosphate 5-kinase type 1 alpha)	0.82	0.74	0.9

The list itself, repeating the preview:
Gene	CDH1-null / parental viability ratio	CDH1-null viability vs mock (fraction of mock)	parental viability vs mock (fraction of mock)
RANGAP1 (Ran GTPase activating protein 1)	1.01	0.92	0.91
SACK1B (scaffolding CK1 anchoring protein B)	1.32	1.06	0.8
MSH4 (mutS homolog 4)	0.74	0.52	0.7
BARX2 (BARX homeobox 2)	0.86	0.81	0.94
SCT (secretin)	1.18	0.52	0.44
MAL2 (mal, T cell differentiation protein 2)	1.05	1.01	0.96
QDPR (quinoid dihydropteridine reductase)	1.22	0.95	0.78
PIP5K1A (phosphatidylinositol-4-phosphate 5-kinase type 1 alpha)	0.82	0.74	0.9
RBM4B (RNA binding motif protein 4B)	1.21	0.68	0.56
TMCC1 (transmembrane and coiled-coil domain family 1)	1.64	0.74	0.45
TNFRSF10D (TNF receptor superfamily member 10d)	1.24	0.89	0.72
CA6 (carbonic anhydrase 6)	1.01	0.76	0.75
ZNF37A (zinc finger protein 37A)	0.88	0.44	0.5
CP (ceruloplasmin)	0.99	1.14	1.15
ZCRB1 (zinc finger CCHC-type and RNA binding motif containing 1)	0.59	0.54	0.92
FBXO41 (F-box protein 41)	1	0.62	0.62
FAM78B (family with sequence similarity 78 member B)	0.95	0.82	0.86
GPRIN3 (GPRIN family member 3)	1.11	0.62	0.56
ZNF830 (zinc finger protein 830)	0.86	0.81	0.94
BRI3BP (BRI3 binding protein)	1.02	0.9	0.88
ELF2 (E74 like ETS transcription factor 2)	1.01	0.96	0.95
ABCB11 (ATP binding cassette subfamily B member 11)	0.99	1.03	1.04
JAGN1 (jagunal vesicle mediated transporter 1)	1.25	0.7	0.56
SSR3 (signal sequence receptor subunit 3)	1.2	0.96	0.8
GRIN2D (glutamate ionotropic receptor NMDA type subunit 2D)	1.24	0.97	0.78
FLVCR1 (FLVCR choline and heme transporter 1)	1.07	1.02	0.95
CIB1 (calcium and integrin binding 1)	0.79	0.55	0.7
ERBIN (erbb2 interacting protein)	0.82	0.66	0.8
PRPF38A (pre-mRNA processing factor 38A)	1.42	0.34	0.24
NDUFA9 (NADH:ubiquinone oxidoreductase subunit A9)	1.1	1.12	1.02
AUH (AU RNA binding methylglutaconyl-CoA hydratase)	1.17	1.08	0.92
DNAAF2 (dynein axonemal assembly factor 2)	0.91	0.74	0.81
MKX (mohawk homeobox)	1.2	0.84	0.7
SUMO3 (small ubiquitin like modifier 3)	1.32	0.9	0.68
ENTPD4 (ectonucleoside triphosphate diphosphohydrolase 4)	0.94	1	1.06
NHEJ1 (non-homologous end joining factor 1)	0.94	0.98	1.04
PLBD1 (phospholipase B domain containing 1)	1.16	0.57	0.49
EBF1 (EBF transcription factor 1)	1.11	0.8	0.72
RTKN (rhotekin)	0.71	0.51	0.72
CALR3 (calreticulin 3)	1.09	0.94	0.86
SCNN1B (sodium channel epithelial 1 subunit beta)	1.57	1.1	0.7
ADAMTS15 (ADAM metallopeptidase with thrombospondin type 1 motif 15)	1.17	0.94	0.8
MED20 (mediator complex subunit 20)	1.23	0.7	0.57
HBEGF (heparin binding EGF like growth factor)	0.99	1.08	1.09
TMEM120B (transmembrane protein 120B)	1.15	0.9	0.78
IGDCC3 (immunoglobulin superfamily DCC subclass member 3)	1.35	0.69	0.51
CTNNAL1 (catenin alpha like 1)	0.97	0.72	0.74
NR1I2 (nuclear receptor subfamily 1 group I member 2)	0.8	0.72	0.9
VWA1 (von Willebrand factor A domain containing 1)	1.23	0.9	0.73
DTX3L (deltex E3 ubiquitin ligase 3L)	1	0.94	0.94
SHROOM1 (shroom family member 1)	1.04	0.56	0.54
FEM1B (fem-1 homolog B)	0.97	1.04	1.07
OTOF (otoferlin)	1.21	0.8	0.66
RIPPLY3 (ripply transcriptional repressor 3)	1	0.97	0.97
NDUFAB1 (NADH:ubiquinone oxidoreductase subunit AB1)	1.22	0.88	0.72
RNF126 (ring finger protein 126)	0.82	0.74	0.9
PRSS37 (serine protease 37)	0.73	0.58	0.79
RPP40 (ribonuclease P/MRP subunit p40)	1.29	0.54	0.42
JAML (junction adhesion molecule like)	1.04	0.88	0.85
AADACL4 (arylacetamide deacetylase like 4)	1.17	0.96	0.82
MAGEL2 (MAGE family member L2)	1.07	0.88	0.82
LIN7B (lin-7 cell polarity scaffold B)	0.92	0.7	0.76
QTGAL (queuosine-tRNA galactosyltransferase)	0.69	0.6	0.87
EMP1 (epithelial membrane protein 1)	1.03	0.95	0.92
MRPL30 (mitochondrial ribosomal protein L30)	0.79	0.52	0.66
RAP1GAP (RAP1 GTPase activating protein)	0.99	0.95	0.96
FRAT1 (FRAT regulator of Wnt signaling pathway 1)	0.84	0.74	0.88
IGF2 (insulin like growth factor 2)	0.93	0.76	0.82
